For at least one entry, the source does not settle the construct or the ends of the probe. Results from cells or extracts need not show a direct contact.

The target of data set [1] is EGFRvIII (human) (UniProt P00533). The experiment in a line: cell binding RT-qPCR. Conditions: 2'F-pyrimidines (2'F-C, 2'F-U), RT-qPCR: 15 min 37 C, 100 ug/ml polyinosine, DPBS washes, confocal: DMEM without FBS, UV cross-linking buffer not given, protein on the cell surface. For orientation: Real-time PCR tracks product formation cycle by cycle.
The target is the same in data set [2]. As to the kind of experiment: cell binding (method not given). Particulars: VS-GB/EGFRvIII cells (no EGFRwt), control cells not recognized; 2'F-pyrimidines (2'F-C, 2'F-U); RT-qPCR: 15 min 37 C, 100 ug/ml polyinosine, DPBS washes; confocal: DMEM without FBS; UV cross-linking buffer not given; protein on the cell surface.
Data set [3] has the same target. The experiment in a line: flow cytometry. Particulars: U87MG/EGFRvIII cells, 2 uM, higher than parental U87MG; 2'F-pyrimidines (2'F-C, 2'F-U); flow cytometry: DPBS, 37 C, 30 min; protein on the cell surface; label: 5' FAM. For orientation: In flow cytometry, cells or beads pass a laser one at a time.
Data set [4] shares this target. As to the kind of experiment: confocal microscopy. Particulars: NIH/EGFRvIII cells, 2.5 uM FAM-CL4, very little to no signal on NIH/ctr; 2'F-pyrimidines (2'F-C, 2'F-U); RT-qPCR: 15 min 37 C, 100 ug/ml polyinosine, DPBS washes; confocal: DMEM without FBS; UV cross-linking buffer not given; protein on the cell surface; label: 5' FAM.

Take “GCCUUAGUAACGUGCUUUGAUGUCGAUUCGACAGGAGGC [CL4]”: the binding result is “binds” with EGFRvIII (human) [1] (NIH/EGFRvIII cells, 200 and 400 nM, dose dependent, 15 min, polyinosine, no binding to NIH/ctr); “binds” in the data set with EGFRvIII (human) [1] (U87MG/EGFRvIII cells, higher than parental U87MG); “binds” with EGFRvIII (human) [2].

On to “GCCUUAGUAACGUGCUUUGAUGUCGAUUCGACAGGAGGC [FAM-CL4]”, for which the binding result with EGFRvIII (human) [3] and with EGFRvIII (human) [4] was “binds” in each case.
